Laboratory results published in patent publication US20190192613A1, “COMPOSITION FOR PREVENTING OR TREATING HYPEROXIA-INDUCED LUNG INJURY COMPRISING WKYMVM PEPTIDE AS AN ACTIVE INGREDIENT” (SAMSUNG LIFE PUBLIC WELFARE FOUNDATION, priority 2017, published 2019).
Part of at least one peptide drawing is inferred or uncertain, most often the ends.

Tests used:
ERK [1] = assay: Western blotting of total ERK and p-ERK in HUVECs; assay type: cell-based, human
ERK [2] = assay: Western blotting of p-ERK and total ERK in lungs of hyperoxia-induced lung injury mice; assay type: in vivo, mouse; details: hyperoxia (80% O2); i.p. P5 to P8; after treatment vs HC
[3] = test system: hyperoxia-induced lung injury animal models; assay: TUNEL staining of lung sections (apoptosis); assay type: in vivo, mouse; details: HWK vs HC
[4] = test system: hyperoxia-induced lung injury animal models; assay: vWF immunohistochemistry of lungs (angiogenesis); assay type: in vivo, mouse; details: HWK lungs vs HC lungs
HUVECs [5] = assay: Tube formation assay; assay type: cell-based, human
FPR2 [6] = assay: FPR2 immunostaining in HUVECs; assay type: cell-based, human; details: after treatment
FPR2 [7] = assay: Western blotting of FPR2 in lungs of hyperoxia-induced lung injury mice; assay type: in vivo, mouse; details: i.p. every day from P5 to P8; western blot
[8] = test system: hyperoxia-induced lung injury animal models; assay: CD68 and MPO immunohistochemistry of lungs (inflammation); assay type: in vivo, mouse; details: HWK vs HC
HUVECs [9] = assay: Scratch wound closure assay / in vitro cell proliferation analysis; assay type: cell-based, human; details: for cell proliferation in the scratched areas of HUVEC monolayers: 6.5 hours
FPR2 [10] = biological target: T1, FPR2 (Homo sapiens, UniProt P25090); details: known from previous studies; cited from earlier work
T1 sequence (P25090 1-351): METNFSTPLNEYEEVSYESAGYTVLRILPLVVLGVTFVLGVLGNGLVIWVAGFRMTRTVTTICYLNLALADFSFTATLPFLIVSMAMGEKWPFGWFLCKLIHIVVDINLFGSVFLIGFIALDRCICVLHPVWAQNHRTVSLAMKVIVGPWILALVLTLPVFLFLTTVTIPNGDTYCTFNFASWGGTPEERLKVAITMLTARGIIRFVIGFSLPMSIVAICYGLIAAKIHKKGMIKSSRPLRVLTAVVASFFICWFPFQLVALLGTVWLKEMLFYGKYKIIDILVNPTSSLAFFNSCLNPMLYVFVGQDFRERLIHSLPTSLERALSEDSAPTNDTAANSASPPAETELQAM

[11] = test system: hyperoxia-induced lung injury animal models; assay: Pulmonary morphometry (MLI, MAV) in hyperoxia-induced lung injury mice; assay type: in vivo, mouse

Q: With `CSCC[C@H](NC(=O)[C@H](Cc1ccc(O)cc1)NC(=O)[C@H](CCCCN)NC(=O)[C@@H](N)Cc1c[nH]c2ccccc12)C(=O)N[C@H](C(=O)N[C@H](CCSC)C(=O)O)C(C)C` [WKYMVm, Trp-Lys-Tyr-Met-Val-D-Met] as the molecule, how does the “levels of total ERK” value (ERK [1]; before and after treatment) read?
A: The value was “almost similar”.

Q: And the “p-ERK/total ERK” value (ERK [1]; treated group (WK) vs control (Ctrl))?
A: The value was “significantly higher”.

Q: What about the “level of p-ERK” value (ERK [1]; treated group (WK) vs control (Ctrl), normalized with GAPDH) of the same molecule?
A: Its value is “significantly higher”.

Q: And the “level of p-ERK in lungs” value (ERK [2])?
A: The value was “significantly increased”.

Q: What about the “number of TUNEL-positive cells” value [3] of the same molecule?
A: Its value is “significantly reduced”.

Q: And the “vWF intensity in lungs” value [4]?
A: Its value is “significantly increased”.

Q: And the vascular tube length (HUVECs [5]; 1 μM, 24 hours, vs control)?
A: The vascular tube length was “significant increase in vascular tube length”.

Q: What about the vascular tube length (HUVECs [5]; 100 μM group vs 0.1 μM group) of the same molecule?
A: The vascular tube length was “significantly greater”.

Q: And the vascular tube length (HUVECs [5]; 100 μM, 24 hours, vs control)?
A: Its vascular tube length is “significant increase in vascular tube length”.

Q: And the “vascular tube formation of HUVECs” value (HUVECs [5]; 24 hours, Matrigel)?
A: Its value is “significantly increased the vascular tube formation”.

Q: And the “expression of FPR2 in HUVECs” value (FPR2 [6])?
A: Its value is “expression of FPR2 (green) in HUVECs was a result of WKYMVm (SEQ ID NO: 1) treatment”.

Q: And the “FPR2 expression in neonatal mouse lungs” value (FPR2 [7])?
A: Its value is “significantly increased”.

Q: What about the “number of CD68-positive cells” value [8] of the same molecule?
A: Its value is “significantly reduced”.

Q: What about the “number of MPO-positive cells” value [8] of the same molecule?
A: Its value is “significantly reduced”.

Q: What about the “cell proliferation in the scratched areas of HUVEC monolayers” value (“cell proliferation” for short) (HUVECs [9]; 0.01 μM, vs control) of the same molecule?
A: Its value is “did not exhibit significantly increased cell proliferation”.

Q: What about the “cell proliferation” value (HUVECs [9]; 1 μM, vs control) of the same molecule?
A: The value was “exhibited significantly increased cell proliferation”.

Q: What about the “cell proliferation” value (HUVECs [9]; 100 μM, vs control) of the same molecule?
A: Its value is “exhibited significantly increased cell proliferation”.

Q: What about the “number of Ki67-positive cells” value (HUVECs [9]; HUVECs, scratch experiment) of the same molecule?
A: The value was “further confirmed through the number of Ki67-positive cells”.

Q: And the “cell proliferation” value (HUVECs [9]; dose dependence over 0.01, 1, 100 μM)?
A: Its value is “dose-dependently increased cell proliferation”.

Q: And the FPR2 agonism (FPR2 [10])?
A: The FPR2 agonism was “potent agonist of FPR2”.

Q: What about the “mean alveolar volume (MAV)” value ([11]; HWK vs HC, P14) of the same molecule?
A: The value was “significantly improved”.

Q: What about the “mean linear intercept (MLI)” value ([11]; HWK vs HC, P14) of the same molecule?
A: The value was “significantly improved”.

Q: What about the “hyperoxia-induced morphological damage in alveoli” value ([11]; neonatal mice, hyperoxia) of the same molecule?
A: Its value is “significantly suppressed”.
